Results taken from article PMC7202670.
No constants are given. Whether binding was seen depends on the method and setting. In cells and extracts the contact can be indirect. Some entries that bind do so weakly or less than the wild type. For some assays here: Sequences can lack the tags named with a protein.

Chains of the proteins cited; added tags and fusions are not shown. Residues count along the entry.
UniProt Q13586, residues 23-685: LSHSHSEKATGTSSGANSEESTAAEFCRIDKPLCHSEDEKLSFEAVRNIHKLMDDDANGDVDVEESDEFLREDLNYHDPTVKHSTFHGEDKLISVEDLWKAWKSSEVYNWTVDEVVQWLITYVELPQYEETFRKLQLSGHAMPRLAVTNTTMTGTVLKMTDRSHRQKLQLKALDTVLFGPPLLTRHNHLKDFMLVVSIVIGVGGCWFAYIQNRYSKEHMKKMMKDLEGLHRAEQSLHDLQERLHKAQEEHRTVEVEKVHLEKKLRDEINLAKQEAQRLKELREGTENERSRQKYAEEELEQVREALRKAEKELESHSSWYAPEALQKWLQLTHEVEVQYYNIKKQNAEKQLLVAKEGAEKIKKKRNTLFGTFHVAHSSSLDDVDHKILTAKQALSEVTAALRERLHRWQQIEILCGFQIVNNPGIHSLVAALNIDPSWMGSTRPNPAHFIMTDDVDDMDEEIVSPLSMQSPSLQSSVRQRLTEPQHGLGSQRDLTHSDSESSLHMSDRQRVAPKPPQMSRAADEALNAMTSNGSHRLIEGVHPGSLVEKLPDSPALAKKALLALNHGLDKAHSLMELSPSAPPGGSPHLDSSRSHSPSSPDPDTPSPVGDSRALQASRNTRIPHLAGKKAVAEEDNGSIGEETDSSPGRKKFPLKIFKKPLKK
UniProt P70302, residues 23-685: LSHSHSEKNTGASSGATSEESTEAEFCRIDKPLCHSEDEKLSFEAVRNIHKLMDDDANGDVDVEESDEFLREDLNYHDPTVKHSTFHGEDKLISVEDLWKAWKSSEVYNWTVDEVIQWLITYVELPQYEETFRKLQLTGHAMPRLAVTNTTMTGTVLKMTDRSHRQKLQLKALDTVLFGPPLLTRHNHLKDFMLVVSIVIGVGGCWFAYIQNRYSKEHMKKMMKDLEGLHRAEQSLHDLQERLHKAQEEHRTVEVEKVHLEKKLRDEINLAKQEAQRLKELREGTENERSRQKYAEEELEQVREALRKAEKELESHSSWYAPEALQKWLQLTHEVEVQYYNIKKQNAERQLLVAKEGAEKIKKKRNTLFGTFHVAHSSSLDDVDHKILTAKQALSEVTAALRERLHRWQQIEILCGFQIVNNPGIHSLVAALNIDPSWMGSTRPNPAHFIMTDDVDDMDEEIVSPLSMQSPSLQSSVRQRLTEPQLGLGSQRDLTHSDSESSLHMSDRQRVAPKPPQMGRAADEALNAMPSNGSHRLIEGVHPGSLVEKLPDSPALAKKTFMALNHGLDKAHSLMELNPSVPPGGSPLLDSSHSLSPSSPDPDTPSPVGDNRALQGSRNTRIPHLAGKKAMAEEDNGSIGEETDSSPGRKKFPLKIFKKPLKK

Experiments:
myc-TRIC-A (mouse) = target: T1, myc-TRIC-A (mouse) (UniProt Q3TMP8); test: co-IP; Pierce anti-c-myc magnetic beads; lysates (Pierce IP lysis buffer) of transfected HEK293 cells, basal or ER-depleted (100 uM CCh + 30 uM BHQ); western blot
T1 sequence: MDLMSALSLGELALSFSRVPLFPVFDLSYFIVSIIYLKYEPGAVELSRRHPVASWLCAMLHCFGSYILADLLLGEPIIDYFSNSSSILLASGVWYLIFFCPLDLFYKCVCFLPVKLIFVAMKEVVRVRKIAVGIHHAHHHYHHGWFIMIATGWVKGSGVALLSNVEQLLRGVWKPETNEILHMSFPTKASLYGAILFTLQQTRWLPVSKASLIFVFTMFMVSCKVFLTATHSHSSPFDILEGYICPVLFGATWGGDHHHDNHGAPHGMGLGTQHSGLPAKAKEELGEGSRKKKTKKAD

STIM1-myc = STIM1-myc (UniProt Q13586); test: as above
[1] = target: endogenous STIM1 (murine skeletal muscle) (mouse (endogenous in skeletal muscle)) (UniProt P70302); test: co-IP; STIM1 antibody (BD Biosciences) and Protein A agarose, overnight at 4 C; lysates of murine hind limb skeletal muscle (1% Nonidet P-40, 50 mM Tris-HCl, 150 mM NaCl, 2 mM EDTA, 5% glycerol, pH 8), basal or SR-depleted (30 mM caffeine + 30 uM BHQ); western blot
STIM1-YFP = STIM1-YFP (UniProt Q13586); test: FRET or BRET; normalized FRET (N_FRET, pixFRET) from epifluorescence images of HEK293 cells transfected with CFP/YFP fusion constructs; basal, or ER-depleted with 100 uM CCh + 30 uM BHQ (STIM1-YFP with Orai1-CFP, with or without coexpressed TRIC-A)

## endogenous STIM1 (HEK293) (from UniProt Q13586 23-685)
myc-TRIC-A (mouse)
  binding: binds

B1: TRIC-A-mCherry (protein, UniProt Q3TMP8 1-298)
chain: MDLMSALSLGELALSFSRVPLFPVFDLSYFIVSIIYLKYEPGAVELSRRHPVASWLCAMLHCFGSYILADLLLGEPIIDYFSNSSSILLASGVWYLIFFCPLDLFYKCVCFLPVKLIFVAMKEVVRVRKIAVGIHHAHHHYHHGWFIMIATGWVKGSGVALLSNVEQLLRGVWKPETNEILHMSFPTKASLYGAILFTLQQTRWLPVSKASLIFVFTMFMVSCKVFLTATHSHSSPFDILEGYICPVLFGATWGGDHHHDNHGAPHGMGLGTQHSGLPAKAKEELGEGSRKKKTKKAD
STIM1-myc
  binding: binds

B2: endogenous TRIC-B (protein, UniProt Q9NVV0 1-291)
chain: MDSPWDELALAFSRTSMFPFFDIAHYLVSVMAVKRQPGAAALAWKNPISSWFTAMLHCFGGGILSCLLLAEPPLKFLANHTNILLASSIWYITFFCPHDLVSQGYSYLPVQLLASGMKEVTRTWKIVGGVTHANSYYKNGWIVMIAIGWARGAGGTIITNFERLVKGDWKPEGDEWLKMSYPAKVTLLGSVIFTFQHTQHLAISKHNLMFLYTIFIVATKITMMTTQTSTMTFAPFEDTLSWMLFGWQQPFSSCEKKSEAKSPSNGVGSLASKPVDVASDNVKKKHTKKNE
STIM1-myc
  binding: binds

B3: endogenous TRIC-A (murine skeletal muscle) (protein, UniProt Q3TMP8 1-298)
chain: MDLMSALSLGELALSFSRVPLFPVFDLSYFIVSIIYLKYEPGAVELSRRHPVASWLCAMLHCFGSYILADLLLGEPIIDYFSNSSSILLASGVWYLIFFCPLDLFYKCVCFLPVKLIFVAMKEVVRVRKIAVGIHHAHHHYHHGWFIMIATGWVKGSGVALLSNVEQLLRGVWKPETNEILHMSFPTKASLYGAILFTLQQTRWLPVSKASLIFVFTMFMVSCKVFLTATHSHSSPFDILEGYICPVLFGATWGGDHHHDNHGAPHGMGLGTQHSGLPAKAKEELGEGSRKKKTKKAD
[1]
  binding: binds

B4: TRIC-A-CFP (protein, UniProt Q3TMP8 1-298)
chain: MDLMSALSLGELALSFSRVPLFPVFDLSYFIVSIIYLKYEPGAVELSRRHPVASWLCAMLHCFGSYILADLLLGEPIIDYFSNSSSILLASGVWYLIFFCPLDLFYKCVCFLPVKLIFVAMKEVVRVRKIAVGIHHAHHHYHHGWFIMIATGWVKGSGVALLSNVEQLLRGVWKPETNEILHMSFPTKASLYGAILFTLQQTRWLPVSKASLIFVFTMFMVSCKVFLTATHSHSSPFDILEGYICPVLFGATWGGDHHHDNHGAPHGMGLGTQHSGLPAKAKEELGEGSRKKKTKKAD
STIM1-YFP
  binding: binds
